This is one part of the list.
Test system: T1, CTL2-GFP (C. trachomatis L2/434/Bu, GFP-expressing)
T1 construct: L2/434/Bu, GFP-expressing
Parameters: species or system HeLa; Intracellular C. trachomatis growth in HeLa cells, bulk GFP fluorescence relative to DMSO
Details: bulk GFP, single well; 28.5 h, 10 µM; inhibitor

Going from `CCc1nc2ccc(C(=O)N3CCN(C(C)=O)CC3)cn2c1N(C)Cc1ccc(Cl)cc1` [CBK146718] to `O=C(c1ccc(Cl)cc1)N1CCN(C(=O)c2cc(O)nc3ccccc23)CC1` [CBK296666], the “% of control remaining” value rises from 106.666% to 113.766%.

First: OCCc1ccc(Nc2cc(-c3ccc4c(c3)OCO4)ncn2)cc1 [CBK090767]
Second: c1coc(CNc2ncc(-c3ccc4c(c3)OCO4)c(-c3cccs3)n2)c1 [CBK286414]
The “% of control remaining” value of the first is lower: 118.141% for the first, 144.506% for the second.

Going from `CCNC(=S)N[C@H]1CC[C@@]2(Cc3ccccc3Cl)CCN(C)[C@H]2C1` [CBK003708] to `COc1ccc(C(NC(=O)N2CCN(C(=O)NCc3ccccc3Cl)CC2)c2ccccc2C)cn1` (centres unmarked) [CBK081471], the “% of control remaining” value rises from 116.438% to 118.592%.

First: O=C(O)c1ccc(NC(=O)c2cccc(-n3cnnc3)c2)cc1 [CBK270134]
Second: O=C(Nc1ccncc1)c1ccc(CNS(=O)(=O)c2cccc(C(F)(F)F)c2)cc1 [CBK267181]
The “% of control remaining” value of the first is lower: 116.037% for the first, 175.36% for the second.

Compared with `CCn1nc(C)c(-c2cncn2CCCC(C)(C)CO)c1C` [CBK281807], `CCC(c1ccc(F)cc1)n1cncc1-c1cnn(C)c1` (centres unmarked) [CBK281883] is higher in “% of control remaining” value: 110.845% for the first, 120.691% for the second.

First: c1ccc(C(Oc2nccnc2-c2ccsc2)c2ccccc2)cc1 [CBK106765]
Second: Cc1ccccc1OCc1nnc(SCc2nnc(-c3ccccc3)o2)n1C [CBK267406]
The “% of control remaining” value of the first is lower: 145.514% for the first, 148.374% for the second.

First: CC(C)CC(=O)N1CCN(Cc2nc3sc4c(c3c(=O)[nH]2)CCC4)CC1 [CBK305014]
Second: O=C1NC(=O)C(CCCCN2CCCC3(CCN(C(=O)c4cc(F)c(F)cc4F)C3)C2)N1 (centres unmarked) [CBK132020]
The “% of control remaining” value of the first is lower: 117.748% for the first, 127.955% for the second.

Compared with `Cn1c(=O)[nH]c(=O)c2cnc(-c3ccc(Cl)cc3)nc21` [CBK291208], `CC(C)(N)CNC(=O)c1cc(-c2ccc(Cl)cc2)[nH]n1` [CBK116554] is higher in “% of control remaining” value: 94.8186% for the first, 100% for the second.

Going from `COc1cc(NC(=O)c2nn3c(c2Br)NC(c2cccs2)CC3C(F)(F)F)c(OC)cc1Cl` (centres unmarked) [CBK263573] to `CCOC(=O)C1=C(c2ccccc2)Nc2ncnn2C1c1cccc(OC)c1OC` (centres unmarked) [CBK266353], the “% of control remaining” value rises from 100% to 150.309%.

First: CSc1[nH]nc(-c2ccc(C(C)(C)C)cc2)c1C#N [CBK016999]
Second: CSc1nnc(CCCNc2cccc(C#N)n2)n1CC(C)C [CBK306449]
The “% of control remaining” value of the first is lower: 96.6255% for the first, 132.123% for the second.

Compared with `CC(=O)N1CCc2nc(C)nc(NCCn3cccc3)c2CC1` [CBK307130], `O=C(Cc1nc2ccccc2[nH]1)N1CCOCC1` [CBK019505] is lower in “% of control remaining” value: 128.689% for the first, 107.447% for the second.

Compared with `COc1ccc(/C=C2\SC(Nc3ccc(Cl)c(C(=O)O)c3)=NC2=O)cc1C` [CBK067743], `COc1ccc(NC(=O)c2c[nH]c3nc(C)ccc3c2=O)cc1` [CBK287816] is higher in “% of control remaining” value: 108.177% for the first, 141.608% for the second.

First: O=C(Cc1ccccc1)N1CCN(S(=O)(=O)N2CCOCC2)CC1 [CBK268857]
Second: O=C(O)COCC(=O)N1CCN(CCc2ccccc2)CC1 [CBK270298]
The “% of control remaining” value of the first is higher: 145.951% for the first, 76.046% for the second.

First: CS(=O)(=O)NC1CCCN(c2nc(-c3ccsc3)nc3ccccc23)C1 (centres unmarked) [CBK305623]
Second: CN(C)c1ncc(-c2ccccc2)c(C2CCCN2Cc2ccc3ncccc3c2)n1 (centres unmarked) [CBK286256]
The “% of control remaining” value of the first is higher: 142.76% for the first, 109.886% for the second.

Compared with `CCOC(=O)c1c(NC(=O)CN2CC(C)OC(C)C2)sc2c1CCC(C)C2` (centres unmarked) [CBK264572], `NC(=O)c1c(NC(=O)CSc2nnc(-c3ccccc3)n2CC2CCCO2)sc2c1CCC2` (centres unmarked) [CBK084789] is lower in “% of control remaining” value: 109.634% for the first, 99.8598% for the second.

First: Cc1c(C(=O)NCC[S+](C)[O-])oc2c(C)cccc12 (centres unmarked) [CBK282511]
Second: Cc1ccc(C2CCCN2C(=O)Cn2cc(C(=O)NCc3ccccc3)ccc2=O)cc1C (centres unmarked) [CBK286051]
The “% of control remaining” value of the first is higher: 118.789% for the first, 115.581% for the second.

First: COc1ccc(C(=O)COC(=O)c2cccc(N3C(=O)C4C5C=C(C)C(C5)C4C3=O)c2)cc1 (centres unmarked) [CBK264808]
Second: COc1ccc(CNc2nc(-c3cccnc3)nn2C(=O)c2ccc([N+](=O)[O-])cc2)cc1 [CBK268966]
The “% of control remaining” value of the first is lower: 129.852% for the first, 131.646% for the second.

Going from `Cc1cc(=O)oc2cc(NC(=S)NNC(=O)C(C)Oc3ccc4c(c3)CCC4)ccc12` (centres unmarked) [CBK267031] to `O=C(Nc1ccc2c(c1)CCO2)N1CCCC1c1nc(-c2ccccc2)c2ccccn12` (centres unmarked) [CBK046733], the “% of control remaining” value falls from 195.669% to 108.336%.

Going from `CN(CCc1ccccn1)C(=O)C1CN(C(=O)C2CC23CCC3)C1` (centres unmarked) [CBK281969] to `CCNC(=O)N1C[C@@H]2OCC(=O)N(Cc3cccnc3)[C@@H]2C1` [CBK289682], the “% of control remaining” value falls from 112.854% to 109.468%.

Going from `Cc1ccc(C(=O)O)cc1NC(=O)CSc1nc2scc(C3CC3)c2c(=O)n1-c1ccccc1` [CBK297481] to `COc1ccc(NC(=O)c2ccc(N3CCN(Cc4ccccc4)CC3)c([N+](=O)[O-])c2)cc1` [CBK263260], the “% of control remaining” value falls from 115.943% to 96.5218%.

Going from `COC(=O)CC1CCC(NC(=O)C(F)(F)F)CC1` (centres unmarked) [CBK009129] to `CN(C(=O)c1cccnc1)C(CC1CCCCC1)C1CCCCC1` (centres unmarked) [CBK015849], the “% of control remaining” value falls from 135.661% to 90.2071%.

First: NS(=O)(=O)c1ccc(CNC2CC(=O)N(CCc3ccccc3)C2=O)cc1 (centres unmarked) [CBK262464]
Second: O=C(NCc1cccc(C(F)(F)F)c1)N1CCN(CCc2ccccc2)CC1 [CBK158902]
The “% of control remaining” value of the first is higher: 118.391% for the first, 110.744% for the second.

Compared with `Cc1c(F)cccc1CN1CCCN(S(=O)(=O)c2ccc(-c3ccccc3)cc2)CC1` [CBK062977], `CN1CCN(c2nc(-c3ccc(-c4ccccc4)cc3)cnc2N)CC1` [CBK063421] is lower in “% of control remaining” value: 92.3034% for the first, 84.4548% for the second.

First: Cc1ccc(OCc2nnc(SCc3cccc(C#N)c3)n2Cc2ccccc2)cc1C [CBK266065]
Second: COc1ccc(Cn2c(=O)n(S(=O)(=O)c3cccc(-c4nnc(C)o4)c3)c3ccccc32)cc1 [CBK106558]
The “% of control remaining” value of the first is higher: 141.549% for the first, 120.114% for the second.

Going from `Cc1ccc(C(=O)NNCc2ccccc2)c(NCc2cccnc2)n1` [CBK076369] to `COc1ccc(-c2cc(NC(=S)NC(=O)/C=C/c3ccccc3)[nH]n2)cc1` [CBK007190], the “% of control remaining” value falls from 109.321% to 84.7521%.

Compared with `CN(Cc1ccc(Br)cc1)C(=O)CNS(=O)(=O)c1cnn(C)c1` [CBK304553], `CCCc1ccc(N(C)C(=O)c2ccc(OCC)cc2)cc1` [CBK161615] is lower in “% of control remaining” value: 131.372% for the first, 66.5127% for the second.

First: CC(OC(=O)Cc1ccccc1[N+](=O)[O-])c1nnnn1-c1ccccc1 (centres unmarked) [CBK297920]
Second: O=[N+]([O-])c1ccc(N2CCN(Cc3c(O)ccc4ccccc34)CC2)cc1NCc1ccccc1 [CBK268408]
The “% of control remaining” value of the first is higher: 122.935% for the first, 88.1895% for the second.

Compared with `Cc1ccc2nc(-c3ccncc3)cc(C(=O)N3CCN(C4CCCCC4)CC3)c2c1` [CBK267736], `Cc1cc(-c2cnc(N)nc2)cc(C2CCCN(C(=O)COc3c(C)cccc3C)C2)n1` (centres unmarked) [CBK285933] is lower in “% of control remaining” value: 139.478% for the first, 89.1971% for the second.

Compared with `CC(C)(C)OC(=O)NCc1ccc2cccc(OCCO)c2n1` [CBK000585], `Cc1cc(NC(=O)C(C)OC(=O)C(NC(=O)OC(C)(C)C)c2ccccc2)no1` (centres unmarked) [CBK170398] is higher in “% of control remaining” value: 100% for the first, 125.505% for the second.

First: Cc1c(C(C)NCC(O)c2ccco2)cnn1-c1ccc(C#N)cc1 (centres unmarked) [CBK306462]
Second: CCOC(=O)c1cnc2ccc(F)cc2c1NCc1ccco1 [CBK265834]
The “% of control remaining” value of the first is lower: 116.252% for the first, 132.306% for the second.

Going from `OCC1CCCN1c1nccnc1-c1cccnc1` (centres unmarked) [CBK089049] to `c1cncc(OCCN2CCN(c3nccnc3OCCN3CCOCC3)CC2)c1` [CBK082914], the “% of control remaining” value falls from 142.075% to 123.525%.

Compared with `Cc1ccc(Nc2nc(N)nc(CSc3nnc(-c4ccncc4)o3)n2)cc1` [CBK266464], `O=C(NCc1ccncc1)c1ccc(-n2ccnc2)c(-n2cccc2)c1` [CBK285367] is lower in “% of control remaining” value: 163.218% for the first, 124.551% for the second.

Compared with `Clc1ccc(CN2CCN(c3nccnc3OCCN3CCOCC3)CC2)cc1` [CBK082887T], `O=C1CCCN1CC#CCN1CCN(Cc2ccccc2)CC1` [CBK023770C] is lower in “% of control remaining” value: 104.942% for the first, 100.077% for the second.

Compared with `O=c1c2c(-c3ccc(F)cc3)csc2ncn1CC1(CO)CCOCC1` [CBK306822], `CN1CCC(O)(Cn2cnc3cc(-c4ccc(F)cc4)sc3c2=O)CC1` [CBK307434] is lower in “% of control remaining” value: 129.64% for the first, 121.801% for the second.

Going from `Cc1cc(C)c2c(CC(=O)N(C)CCN(C)C)coc2c1` [CBK282174] to `Cc1cc(C)cc(CC(C)Cc2nc3ccccc3[nH]2)c1` (centres unmarked) [CBK262432], the “% of control remaining” value falls from 128.105% to 119.629%.

Going from `CC1=NN(C(=O)c2c(Cl)c(C)nn2C)C(O)(C(F)(F)F)C1` (centres unmarked) [CBK058892] to `CC(=O)Nc1nc(OCC(F)(F)F)cnc1-c1cccc(C(=O)N(C)C)c1` [CBK145401], the “% of control remaining” value rises from 102.626% to 114.453%.

First: CC(=O)Nc1cccc(NC(=O)N2CCNC(=O)C2)c1 [CBK155863]
Second: CC1(C)C(=O)NCCN1C(=O)Cn1cnc2ccccc21 [CBK281856]
The “% of control remaining” value of the first is lower: 109.228% for the first, 166.164% for the second.

Compared with `Cc1cc(N2CCOC(c3nc(C)n[nH]3)C2)c2ccc(F)c(F)c2n1` (centres unmarked) [CBK306018], `O=C(c1ccc2[nH]nnc2c1)N1CCc2ccccc21` [CBK200365] is higher in “% of control remaining” value: 115.201% for the first, 133.406% for the second.

`C=CCN(C(=S)NCc1ccc2c(c1)OCO2)C1CCCCC1` [CBK200037] was tested, and the “% of control remaining” value was 133.425%.
